Experimental data from PMC5814100.

Experiments:
[1] = molecular target: T1, GST-SAP (Arabidopsis thaliana) (UniProt Q9FKH1); test: pull-down; His-KIX8/9 incubated with GST-SAP or GST-GUS, pulled down by glutathione sepharose, immunoblot with anti-His
T1 sequence: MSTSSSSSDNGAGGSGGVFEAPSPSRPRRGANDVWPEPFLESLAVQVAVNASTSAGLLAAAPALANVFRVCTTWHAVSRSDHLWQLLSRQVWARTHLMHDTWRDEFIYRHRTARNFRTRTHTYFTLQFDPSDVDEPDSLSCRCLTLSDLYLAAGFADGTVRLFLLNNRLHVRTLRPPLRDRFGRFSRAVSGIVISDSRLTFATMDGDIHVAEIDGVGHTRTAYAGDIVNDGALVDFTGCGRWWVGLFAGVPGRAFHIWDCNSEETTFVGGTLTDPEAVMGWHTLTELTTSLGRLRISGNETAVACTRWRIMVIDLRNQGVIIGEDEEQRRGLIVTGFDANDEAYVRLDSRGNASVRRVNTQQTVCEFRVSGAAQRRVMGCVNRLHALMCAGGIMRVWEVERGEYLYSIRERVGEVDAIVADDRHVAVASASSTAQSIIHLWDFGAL

[2] = molecular target: T2, STERILE APETALA (SAP), bait construct pGBKT7-SAP (Arabidopsis thaliana) (UniProt Q9FKH1); test: two-hybrid; library screen with the bait pGBKT7-SAP, Matchmaker Gold Yeast Two-Hybrid system (Clontech)
T2 sequence: T1 sequence

[3] = molecular target: T3, GFP-SAP (Arabidopsis thaliana) (UniProt Q9FKH1); test: co-IP; GFP-Trap-A beads with total protein extracts of transgenic Arabidopsis; seedlings pre-treated with MG132; immunoblot with anti-Myc and anti-GFP
T3 sequence: T1 sequence

[4] = molecular target: T4, SAP-nLUC (Arabidopsis thaliana) (UniProt Q9FKH1); test: split reporter; split luciferase complementation; SAP-nLUC and cLUC-KIX8/9 co-expressed in N. benthamiana leaves, luminescence 24 hours after infiltration
T4 sequence: T1 sequence

With His-KIX8 (Arabidopsis thaliana) the binding [1] was “binds”.

In the case of His-KIX9 (Arabidopsis thaliana), the binding [1] is reported as “binds”.

With “KIX9, prey found in the yeast two-hybrid screen (Arabidopsis thaliana)” the binding [2] was “binds”.

With Myc-KIX8 (Arabidopsis thaliana) the binding [3] was “binds”.

Myc-KIX9 (Arabidopsis thaliana) was tested, and the binding [3] was “binds”.

With cLUC-KIX8 (Arabidopsis thaliana) the binding [4] was “binds”.

With cLUC-KIX9 (Arabidopsis thaliana) the binding [4] was “binds”.

These are yes or no findings as the source states them, for the method shown. Binding can be weak; no strength is given. For some of these results: In cells and extracts the contact can be indirect. For some of these results: Tags and fused reporters may be left off the sequences shown.
